Reference: the supplement of paper PMC10849652
This is one part of the list. Residues, ends and D or L forms follow the SMILES beside them. *: point of attachment. Cbz = O=C(OCc1ccccc1)*

By UniProt entry, the sequences of proteins in these tests, tags left out. Where a name states a change or a piece, a line headed by the entry shows the natural chain unless it says otherwise.
UniProt Q9UBY8, whole entry, looked up: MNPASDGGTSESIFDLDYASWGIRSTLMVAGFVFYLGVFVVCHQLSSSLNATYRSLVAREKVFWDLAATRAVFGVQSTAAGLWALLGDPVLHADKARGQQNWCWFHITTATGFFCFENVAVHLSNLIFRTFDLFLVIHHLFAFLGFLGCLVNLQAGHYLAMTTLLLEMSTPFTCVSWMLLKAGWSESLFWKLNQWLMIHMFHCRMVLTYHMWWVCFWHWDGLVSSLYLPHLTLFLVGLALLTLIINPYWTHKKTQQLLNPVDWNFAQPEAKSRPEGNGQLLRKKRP
UniProt Q9NYJ1, whole entry, looked up: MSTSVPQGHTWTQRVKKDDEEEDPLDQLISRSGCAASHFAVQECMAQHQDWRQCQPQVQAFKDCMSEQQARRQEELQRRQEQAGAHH
UniProt Q9NRB3: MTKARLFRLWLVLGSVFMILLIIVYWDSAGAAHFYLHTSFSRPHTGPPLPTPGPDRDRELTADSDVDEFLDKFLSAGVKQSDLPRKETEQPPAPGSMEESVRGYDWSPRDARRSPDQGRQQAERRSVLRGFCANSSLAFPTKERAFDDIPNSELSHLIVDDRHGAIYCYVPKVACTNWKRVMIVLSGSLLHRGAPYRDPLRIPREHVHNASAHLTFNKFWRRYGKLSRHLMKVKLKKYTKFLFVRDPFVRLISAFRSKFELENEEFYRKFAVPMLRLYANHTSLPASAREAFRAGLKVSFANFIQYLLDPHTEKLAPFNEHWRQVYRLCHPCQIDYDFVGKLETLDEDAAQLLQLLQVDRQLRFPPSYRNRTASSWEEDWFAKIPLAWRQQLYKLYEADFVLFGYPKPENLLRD
UniProt P83436: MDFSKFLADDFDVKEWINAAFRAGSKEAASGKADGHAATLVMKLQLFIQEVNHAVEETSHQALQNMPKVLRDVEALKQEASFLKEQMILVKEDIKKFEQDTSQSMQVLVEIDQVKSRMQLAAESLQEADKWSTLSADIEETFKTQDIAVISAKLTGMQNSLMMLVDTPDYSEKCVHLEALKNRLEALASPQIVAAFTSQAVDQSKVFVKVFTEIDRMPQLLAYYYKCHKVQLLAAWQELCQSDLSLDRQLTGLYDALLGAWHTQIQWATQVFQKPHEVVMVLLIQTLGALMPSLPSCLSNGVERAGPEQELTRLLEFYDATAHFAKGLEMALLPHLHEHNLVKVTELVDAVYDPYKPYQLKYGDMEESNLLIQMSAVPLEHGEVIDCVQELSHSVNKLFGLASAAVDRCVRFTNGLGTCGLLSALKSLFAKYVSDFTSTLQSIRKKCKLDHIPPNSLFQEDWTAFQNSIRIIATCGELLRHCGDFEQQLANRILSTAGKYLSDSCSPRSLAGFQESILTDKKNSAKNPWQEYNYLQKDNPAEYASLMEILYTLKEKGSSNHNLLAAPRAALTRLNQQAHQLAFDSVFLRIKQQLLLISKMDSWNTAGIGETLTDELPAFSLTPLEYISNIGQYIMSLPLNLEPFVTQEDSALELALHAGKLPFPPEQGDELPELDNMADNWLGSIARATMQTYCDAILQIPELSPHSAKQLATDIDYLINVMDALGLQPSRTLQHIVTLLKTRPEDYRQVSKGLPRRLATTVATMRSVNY
UniProt P62633: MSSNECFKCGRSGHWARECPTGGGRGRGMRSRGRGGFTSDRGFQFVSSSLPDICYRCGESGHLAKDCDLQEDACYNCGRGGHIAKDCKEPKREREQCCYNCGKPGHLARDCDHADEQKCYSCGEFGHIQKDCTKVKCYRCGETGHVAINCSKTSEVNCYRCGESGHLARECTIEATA
UniProt Q14677: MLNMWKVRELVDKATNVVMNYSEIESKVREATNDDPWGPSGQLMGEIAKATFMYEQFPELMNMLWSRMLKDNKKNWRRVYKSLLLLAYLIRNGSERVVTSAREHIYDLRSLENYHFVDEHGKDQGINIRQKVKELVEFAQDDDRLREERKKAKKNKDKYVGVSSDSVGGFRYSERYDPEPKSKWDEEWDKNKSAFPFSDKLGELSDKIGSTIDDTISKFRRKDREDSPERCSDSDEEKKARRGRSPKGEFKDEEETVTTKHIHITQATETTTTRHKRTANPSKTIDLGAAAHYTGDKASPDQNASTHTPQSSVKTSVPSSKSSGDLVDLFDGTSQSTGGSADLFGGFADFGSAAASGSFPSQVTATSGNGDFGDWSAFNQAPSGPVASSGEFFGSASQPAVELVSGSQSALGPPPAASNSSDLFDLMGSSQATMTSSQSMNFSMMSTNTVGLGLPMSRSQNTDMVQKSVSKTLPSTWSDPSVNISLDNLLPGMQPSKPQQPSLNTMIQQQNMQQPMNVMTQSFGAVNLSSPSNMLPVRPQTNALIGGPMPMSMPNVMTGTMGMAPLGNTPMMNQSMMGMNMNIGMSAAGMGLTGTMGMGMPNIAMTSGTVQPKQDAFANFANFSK
UniProt Q9Y3D0: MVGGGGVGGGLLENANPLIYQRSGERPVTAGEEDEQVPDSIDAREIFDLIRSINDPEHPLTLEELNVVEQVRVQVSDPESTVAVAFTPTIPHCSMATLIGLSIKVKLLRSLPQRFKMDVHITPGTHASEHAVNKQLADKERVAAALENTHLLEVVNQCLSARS
UniProt Q8IY22: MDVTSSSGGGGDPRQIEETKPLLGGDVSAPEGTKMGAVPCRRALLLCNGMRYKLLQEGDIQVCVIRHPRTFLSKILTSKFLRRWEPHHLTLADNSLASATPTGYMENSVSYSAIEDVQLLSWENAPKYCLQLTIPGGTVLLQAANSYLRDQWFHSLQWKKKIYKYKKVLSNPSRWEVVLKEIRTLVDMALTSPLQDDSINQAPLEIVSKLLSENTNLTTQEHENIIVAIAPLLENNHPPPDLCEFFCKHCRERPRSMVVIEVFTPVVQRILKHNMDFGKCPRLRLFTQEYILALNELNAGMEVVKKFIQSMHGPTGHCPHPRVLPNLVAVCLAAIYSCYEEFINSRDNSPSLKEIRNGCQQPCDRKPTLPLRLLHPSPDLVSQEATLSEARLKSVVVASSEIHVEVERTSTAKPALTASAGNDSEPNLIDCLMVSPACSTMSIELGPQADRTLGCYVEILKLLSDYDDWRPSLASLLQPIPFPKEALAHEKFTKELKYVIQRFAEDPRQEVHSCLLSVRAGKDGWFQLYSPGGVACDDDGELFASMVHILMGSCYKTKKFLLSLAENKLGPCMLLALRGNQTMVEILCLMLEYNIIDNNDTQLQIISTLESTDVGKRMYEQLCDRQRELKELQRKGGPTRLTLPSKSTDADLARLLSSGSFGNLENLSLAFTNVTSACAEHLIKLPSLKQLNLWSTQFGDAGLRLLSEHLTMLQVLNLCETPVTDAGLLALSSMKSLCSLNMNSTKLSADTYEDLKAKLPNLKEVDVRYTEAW
UniProt Q7Z7A1: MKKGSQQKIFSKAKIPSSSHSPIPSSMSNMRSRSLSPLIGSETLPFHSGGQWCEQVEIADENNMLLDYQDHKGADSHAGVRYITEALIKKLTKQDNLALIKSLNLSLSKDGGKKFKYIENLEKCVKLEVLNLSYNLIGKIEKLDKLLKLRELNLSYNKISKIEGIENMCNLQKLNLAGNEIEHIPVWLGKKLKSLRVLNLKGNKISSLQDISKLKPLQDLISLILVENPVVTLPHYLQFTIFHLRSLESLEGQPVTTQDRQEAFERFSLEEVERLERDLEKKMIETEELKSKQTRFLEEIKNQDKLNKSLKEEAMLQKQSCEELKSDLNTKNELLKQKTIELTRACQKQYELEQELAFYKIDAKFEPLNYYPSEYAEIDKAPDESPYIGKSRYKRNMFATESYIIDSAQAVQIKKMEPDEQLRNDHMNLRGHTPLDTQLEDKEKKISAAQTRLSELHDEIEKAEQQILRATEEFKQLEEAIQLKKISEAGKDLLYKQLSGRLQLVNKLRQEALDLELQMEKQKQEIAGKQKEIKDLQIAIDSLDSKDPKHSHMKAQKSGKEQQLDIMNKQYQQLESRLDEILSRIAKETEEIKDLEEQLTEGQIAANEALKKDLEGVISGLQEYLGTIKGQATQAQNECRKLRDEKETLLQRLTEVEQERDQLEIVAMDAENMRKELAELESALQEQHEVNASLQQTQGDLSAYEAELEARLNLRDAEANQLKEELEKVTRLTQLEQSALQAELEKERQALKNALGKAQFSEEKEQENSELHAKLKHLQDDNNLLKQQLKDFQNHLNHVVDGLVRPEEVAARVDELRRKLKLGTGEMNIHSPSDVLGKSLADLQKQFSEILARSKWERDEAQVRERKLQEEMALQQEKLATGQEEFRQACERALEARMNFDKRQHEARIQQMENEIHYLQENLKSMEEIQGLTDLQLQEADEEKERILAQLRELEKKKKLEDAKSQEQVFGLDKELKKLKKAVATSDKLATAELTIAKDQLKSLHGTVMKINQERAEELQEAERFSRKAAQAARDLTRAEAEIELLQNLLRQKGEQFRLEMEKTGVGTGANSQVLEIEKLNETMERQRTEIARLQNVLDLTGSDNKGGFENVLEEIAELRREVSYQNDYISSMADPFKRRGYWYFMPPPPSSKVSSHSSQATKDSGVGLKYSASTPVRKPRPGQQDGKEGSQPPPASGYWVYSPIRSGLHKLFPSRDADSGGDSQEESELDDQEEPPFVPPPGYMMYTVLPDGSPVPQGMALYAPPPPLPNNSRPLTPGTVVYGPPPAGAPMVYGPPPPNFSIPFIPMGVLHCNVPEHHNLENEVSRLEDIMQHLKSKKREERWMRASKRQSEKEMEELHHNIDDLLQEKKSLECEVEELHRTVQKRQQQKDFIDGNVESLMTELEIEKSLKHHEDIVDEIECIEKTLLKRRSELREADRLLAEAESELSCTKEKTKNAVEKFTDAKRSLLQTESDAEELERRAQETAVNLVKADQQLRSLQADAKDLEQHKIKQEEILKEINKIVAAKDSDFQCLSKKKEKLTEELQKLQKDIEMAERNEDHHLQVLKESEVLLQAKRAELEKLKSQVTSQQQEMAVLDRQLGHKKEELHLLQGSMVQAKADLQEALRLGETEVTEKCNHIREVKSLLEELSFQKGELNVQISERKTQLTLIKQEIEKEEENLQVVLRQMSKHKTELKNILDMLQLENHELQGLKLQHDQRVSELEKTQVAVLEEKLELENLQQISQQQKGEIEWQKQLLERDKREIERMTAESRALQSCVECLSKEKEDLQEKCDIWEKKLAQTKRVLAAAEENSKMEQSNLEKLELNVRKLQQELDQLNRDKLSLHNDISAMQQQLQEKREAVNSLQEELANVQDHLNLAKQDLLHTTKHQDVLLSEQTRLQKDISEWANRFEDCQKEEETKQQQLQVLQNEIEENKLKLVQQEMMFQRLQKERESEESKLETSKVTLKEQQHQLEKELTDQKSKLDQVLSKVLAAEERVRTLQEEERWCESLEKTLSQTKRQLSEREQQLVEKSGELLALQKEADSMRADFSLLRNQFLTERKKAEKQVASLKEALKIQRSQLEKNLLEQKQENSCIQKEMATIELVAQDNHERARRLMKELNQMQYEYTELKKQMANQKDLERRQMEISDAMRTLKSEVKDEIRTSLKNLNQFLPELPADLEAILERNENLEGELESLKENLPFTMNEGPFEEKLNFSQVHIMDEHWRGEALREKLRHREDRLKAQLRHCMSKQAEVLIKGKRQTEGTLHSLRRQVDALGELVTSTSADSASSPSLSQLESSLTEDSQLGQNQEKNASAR
UniProt Q96MW5: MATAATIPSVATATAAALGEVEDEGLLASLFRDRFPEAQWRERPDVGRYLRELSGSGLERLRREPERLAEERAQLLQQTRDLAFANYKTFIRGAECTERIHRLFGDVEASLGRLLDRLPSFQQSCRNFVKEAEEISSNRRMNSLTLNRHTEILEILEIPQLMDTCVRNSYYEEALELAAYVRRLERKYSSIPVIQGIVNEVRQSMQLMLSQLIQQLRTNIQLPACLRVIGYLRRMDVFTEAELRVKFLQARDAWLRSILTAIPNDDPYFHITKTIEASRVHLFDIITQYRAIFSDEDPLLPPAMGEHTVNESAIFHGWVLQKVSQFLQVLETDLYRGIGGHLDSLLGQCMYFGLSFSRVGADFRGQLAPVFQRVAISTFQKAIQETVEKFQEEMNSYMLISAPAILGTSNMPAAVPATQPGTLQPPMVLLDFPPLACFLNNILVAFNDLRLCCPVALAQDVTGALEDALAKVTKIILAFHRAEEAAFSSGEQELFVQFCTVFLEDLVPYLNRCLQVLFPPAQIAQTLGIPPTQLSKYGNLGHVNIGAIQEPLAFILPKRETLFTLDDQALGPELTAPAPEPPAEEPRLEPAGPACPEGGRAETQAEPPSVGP
UniProt Q9Y240: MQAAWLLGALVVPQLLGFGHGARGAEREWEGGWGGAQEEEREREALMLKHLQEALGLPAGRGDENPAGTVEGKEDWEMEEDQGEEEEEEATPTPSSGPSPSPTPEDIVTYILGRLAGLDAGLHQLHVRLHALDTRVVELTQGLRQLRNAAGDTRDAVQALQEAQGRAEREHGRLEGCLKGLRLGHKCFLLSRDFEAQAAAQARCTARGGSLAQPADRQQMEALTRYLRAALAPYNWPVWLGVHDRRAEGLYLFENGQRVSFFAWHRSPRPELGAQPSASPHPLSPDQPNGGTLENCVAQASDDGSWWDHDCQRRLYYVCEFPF

Experiments:
Test in all cases: log2 fold change, soluble protein after heating vs DMSO (PISA); higher = thermal stabilisation; K562 cells, 10 uM, 30 min; active = over 0.2 and 3.5 SD of the protein, either way, in both replicates (recomputed)
erlotinib = compound: C#Cc1cccc(Nc2ncnc3cc(OCCOC)c(OCCOC)cc23)c1 [erlotinib]
Summary of the method: (§1)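 For each measurement, 10 μM compound was applied for 30 min to K562 cells at 2×10^6 cells/mL. Aliquots were heated for 3 min across 48°C-58°C, pooled, and extracted in PBS with 0.5% NP-40 at 4°C; the supernatant after 21,000xg for 90 min was soluble protein. This was quantified by TMTpro 16plex LC-MS/MS with channel sums equalised, and thermal stability was reported relative to control samples from duplicates, on a log2 fold-change scale.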

[1] = compound: C/C(=N\NC(=O)C1=CC(=CC=C1)S(=O)(=O)N2CCOCC2)/C3=C(C=CC(=C3)Cl)O
Summary of the method: as §1

[2] = compound: C1=CC(=CC=C1C2=NC3=C(N2)C=C(C=C3)C(=O)N)OC4=CC=C(C=C4)Cl
Summary of the method: as §1

[3] = compound: C1=CC2=C(C=CC(=C2)/C=C\3/C(=O)NC(=NCC4=CC=CS4)S3)N=C1
Summary of the method: as §1

[4] = compound: C1=CC2=NC=CN=C2C=C1/C=C/3\C(=O)NC(=O)S3
Summary of the method: as §1

[5] = compound: C1=CC=C(C=C1)C2=NC(=C(N2)C3=CC=NC=C3)C4=CC(=C(C=C4)Cl)O
Summary of the method: as §1

[6] = compound: C1=CC=C2C(=C1)C3=NNC4=CC=CC(=C43)C2=O
Summary of the method: as §1

[7] = compound: C1CCN(C1)C(=O)NC2=CC=CC(=C2)NC3=NC=C(C(=N3)NCCC4=CN=CN4)Br
Summary of the method: as §1

[8] = compound: C1CN(CCC1(CC2=CC=C(C=C2)Cl)N)C3=NC=NC4=C3C=CN4
Summary of the method: as §1

IRAK-1-4 Inhibitor I = compound: C1COCCN1CCN2C3=CC=CC=C3N=C2NC(=O)C4=CC(=CC=C4)[N+](=O)[O-] [IRAK-1-4 Inhibitor I]
Summary of the method: as §1

ibrutinib = compound: C=CC(=O)N1CCC[C@@H](n2nc(-c3ccc(Oc4ccccc4)cc3)c3c(N)ncnc32)C1 [ibrutinib]
Summary of the method: as §1

[9] = compound: CC(=O)c1cnc2ccc(-c3cc(Cl)c(O)c(Cl)c3)nc2c1N[C@H]1CC[C@H](CN(C)C)CC1
Summary of the method: as §1

ralimetinib = compound: CC(C)(C)Cn1c(N)nc2ccc(-c3[nH]c(C(C)(C)C)nc3-c3ccc(F)cc3)nc21 [ralimetinib]
Summary of the method: as §1

[10] = compound: CC(C)C1=C2N=C(C=C(N2N=C1)NCC3=CC=CC=C3)NCCCCCCN
Summary of the method: as §1

[11] = compound: CC(C)C[C@@H](C=O)NC(=O)[C@H](CC(C)C)NC(=O)[C@H](CC(C)C)NC(=O)OCc1ccccc1
Summary of the method: as §1

pinometostat = compound: CC(C)N(C[C@H]1O[C@@H](n2cnc3c(N)ncnc32)[C@H](O)[C@@H]1O)[C@H]1C[C@@H](CCc2nc3cc(C(C)(C)C)ccc3[nH]2)C1 [pinometostat]
Summary of the method: as §1

[12] = compound: CC1=C(C(CC(=O)N1)C2=CC=C(C=C2)C(F)(F)F)C(=O)NC3=C(C=C4C(=C3)C=NN4)F
Summary of the method: as §1

[13] = compound: CC1=C(C2=C(C=C1)C(=O)C3=CC=CC=C3N2CCCN)C
Summary of the method: as §1

[14] = compound: C1=CC(=C(C=C1Cl)C2=NC3=NC=CN=C3C(=N2)NC4=CC=NC=C4)F
Summary of the method: as §1

[15] = compound: CC(C)(O)CC(=O)NCCn1ccc2ncnc(Nc3ccc(Oc4cccc(C(F)(F)F)c4)c(Cl)c3)c21
Summary of the method: as §1

Measured: log2 fold change

CNIH4 (UniProt Q9P003)
inactive: erlotinib -0.129 | [1] 0.088 | [2] 0.028 | [3] 0.127 | [4] 0.076 | [5] -0.085 | [6] 0 | [7] 0.081 | [8] 0.047 | IRAK-1-4 Inhibitor I 0.127 | ibrutinib 0.137 | [9] 0.102 | ralimetinib 0.062 | [10] -0.082 | [11] 0.049 | pinometostat 0.008 | [12] -0.038 | [13] 0.03

COG4 (UniProt Q9H9E3)
inactive: erlotinib 0.091 | [14] -0.008 | [2] -0.062 | [5] -0.003 | [7] -0.155 | [8] -0.437 | IRAK-1-4 Inhibitor I -0.152 | ralimetinib 0.126 | [15] -0.103 | [10] -0.202 | [11] 0.136 | pinometostat 0.192 | [12] 0.043 | [13] -0.223

CLN8 (UniProt Q9UBY8)
inactive: erlotinib 0.012 | [1] 0.198 | [2] 0.01 | [3] 0.212 | [4] 0.099 | [5] -0.208 | [6] -0.06 | [7] 0.003 | [8] -0.171 | [9] -0.164 | ralimetinib 0.643 | [10] 0.017 | [11] 0.139 | [13] 0.138

CLASP2 (UniProt O75122)
inactive: erlotinib 0.089 | [1] -0.078 | [2] 0.082 | [3] -0.211 | [4] 0.133 | [5] 0.286 | [6] -0.106 | IRAK-1-4 Inhibitor I 0.027 | [9] -0.852 | ralimetinib -0.067 | [10] 0.086 | [11] 0.161 | pinometostat 0.057

COA4 isoform 2 (UniProt Q9NYJ1)
inactive: erlotinib -0.104 | [1] -0.053 | [14] 0.355 | [2] 0.005 | [3] 0.1 | [4] 0.183 | [5] 0.032 | [6] 0.318 | IRAK-1-4 Inhibitor I -0.169 | ibrutinib 0.01 | [9] -0.052 | ralimetinib -0.263 | [15] -0.07 | [10] 0.112 | [11] 0 | pinometostat -0.077 | [12] 0.1

CHST12 (UniProt Q9NRB3)
inactive: erlotinib 0.097 | [14] 0.004 | [2] 0.166 | [4] 0.115 | [5] 0.047 | [7] -0.07 | [8] 0.012 | IRAK-1-4 Inhibitor I -0.047 | ibrutinib -0.213 | ralimetinib -0.129 | [15] 0.013 | [10] 0.334 | [11] 0.271 | pinometostat 0.029 | [13] -0.069

CMPK2 (UniProt Q5EBM0)
inactive: erlotinib 0.059 | [1] -0.002 | [14] 0.044 | [2] 0.011 | [3] 0.066 | [4] -0.051 | [6] 0.016 | [7] -0.02 | [8] 0.008 | IRAK-1-4 Inhibitor I 0.088 | ibrutinib 0 | [9] -0.065 | [15] -0.059 | [10] -0.124 | pinometostat 0.035 | [12] 0.007 | [13] 0.038

Reprinted from the entries so far (2 entries):
CLASP2 (UniProt O75122)
inactive: erlotinib 0.089 | [1] -0.078 | [2] 0.082 | [3] -0.211 | [4] 0.133 | [5] 0.286 | [6] -0.106 | IRAK-1-4 Inhibitor I 0.027 | [9] -0.852 | ralimetinib -0.067 | [10] 0.086 | [11] 0.161 | pinometostat 0.057

COA4 isoform 2 (UniProt Q9NYJ1)
inactive: erlotinib -0.104 | [1] -0.053 | [14] 0.355 | [2] 0.005 | [3] 0.1 | [4] 0.183 | [5] 0.032 | [6] 0.318 | IRAK-1-4 Inhibitor I -0.169 | ibrutinib 0.01 | [9] -0.052 | ralimetinib -0.263 | [15] -0.07 | [10] 0.112 | [11] 0 | pinometostat -0.077 | [12] 0.1

More entries follow:

COG7 (UniProt P83436)
inactive: erlotinib -0.008 | [1] 0.087 | [14] -0.032 | [2] -0.235 | [3] -0.148 | [5] 0.083 | [6] -0.012 | [9] 0.397 | ralimetinib 0.037 | [15] 0.086 | [10] -0.195 | [11] 0.08

CNN3 (UniProt Q15417)
inactive: erlotinib 0.013 | [1] 0.158 | [14] 0.064 | [2] -0.088 | [3] 0.054 | [4] 0.056 | [6] 0.016 | [7] 0.041 | [8] -0.116 | ibrutinib -0.067 | [9] -0.007 | [15] -0.138 | [10] -0.17 | [13] 0.012

CLSTN3 isoform 2 (UniProt Q9BQT9)
inactive: [1] -0.061 | [14] -0.088 | [3] 0.005 | [6] -0.021 | [9] -0.074 | [15] 0.103

CMYA5 (UniProt Q8N3K9)
inactive: [4] -0.048 | [5] 0.008 | [7] 0.267 | [8] 0.023 | ibrutinib -0.014 | ralimetinib 0.01 | [11] -0.011 | [12] 0.158 | [13] 0.264

CNBP isoform 4 (UniProt P62633)
inactive: [4] 0.002 | ibrutinib 0.05 | [12] 0.032

CLINT1 (UniProt Q14677)
inactive: [1] -0.106 | [14] -0.12 | [3] -0.176 | [4] 0.035 | [6] 0.031 | [7] -0.097 | [8] -0.057 | [9] 0.059 | [15] 0.221 | pinometostat 0.058 | [13] -0.114

CIAO2B (UniProt Q9Y3D0)
inactive: erlotinib 0.053 | [2] -0.029 | [4] -0.047 | IRAK-1-4 Inhibitor I -0.022 | ibrutinib 0.025 | [10] -0.17 | pinometostat 0.184 | [12] 0.038

CMIP (UniProt Q8IY22)
inactive: [14] -0.394 | [4] 0.012 | [5] -0.09 | ibrutinib 0.132 | ralimetinib 0.069 | [15] 0.032 | [11] -0.068

CNTRL (UniProt Q7Z7A1)
inactive: [1] -0.068 | [3] 0 | [5] 0.056 | [6] 0.043 | [7] 0.016 | [8] -0.12 | [9] 0.119 | ralimetinib -0.043 | [11] 0.021 | [12] -0.06 | [13] -0.082

COG8 (UniProt Q96MW5)
inactive: [14] -0.283 | IRAK-1-4 Inhibitor I -0.196 | [15] -0.407 | pinometostat 0.094

COL12A1 (UniProt Q99715)
inactive: [14] 0.019 | [5] 0.276 | [7] 0.01 | [8] 0.143 | ralimetinib -0.082 | [15] -0.09 | [11] 0.144 | [13] -0.037

CLEC11A (UniProt Q9Y240)
inactive: erlotinib -0.029 | [2] -0.067 | [7] 0.007 | [8] 0.016 | [10] 0.086 | [13] -0.26
